Values from PubChem BioAssay AID743121 (NCATS, 2013).

- Test: 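Genes whose silencing strengthens cell killing by camptothecin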 (primary screen)
- System: MDA-MB-231 cells, a human breast cancer line
- Reagents: single siRNA against human genes, 20 nM siRNA (0.8 pmol per well)
- Timing: 120 h (drug added 48 h after transfection, read 72 h later)
- Treatment: camptothecin 20 nM (about EC30) for 72 h; vehicle 0.1% DMSO in parallel plates
- Measurement: 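CellTiter-Glo ATP signal, scaled to control siRNA as percent viability; sensitisation given as log2 of untreated divided by camptothecin-treated viability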
- Scale: log2 vehicle/camptothecin viability: higher = stronger sensitisation to camptothecin; viability with camptothecin and viability without drug: higher = more viable cells
- Hit rule: 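Active genes have an RSA gene-level p-value below 0.001, computed from the ratios of their separate siRNAs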
Shown is an unselected part of about 26,000 reagents. In the full data, 167 (0.63%) were called active. 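Calls are per gene from RSA p-values that are not deposited; an individual active-marked siRNA can sensitise only weakly.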 Unmarked entries are inactive. Reagents against one gene are numbered here.

| gene | reagent no. | log2 vehicle/camptothecin viability | viability with camptothecin (% of control) | viability without drug (% of control) |
| --- | --- | --- | --- | --- |
| RASA1 | 1 | -0.256 | 90.8 | 76 |
| RASA1 | 2 | -0.0635 | 71.1 | 68.1 |
| RASA1 | 3 | -0.367 | 68 | 52.7 |
| RASA1 | 4 | -0.00863 | 75.8 | 75.4 |
| PCBD2 | 1 | -0.486 | 53.7 | 38.3 |
| PCBD2 | 2 | -0.0396 | 62.8 | 61.1 |
| PCBD2 | 3 | -0.307 | 84.1 | 67.9 |
| PCBD2 | 4 | -0.159 | 69.7 | 62.4 |
| CAMKK1 | 1 | -0.0173 | 101 | 99.5 |
| CAMKK1 | 2 | -0.325 | 13.5 | 10.8 |
| CAMKK1 | 3 | -0.118 | 96.6 | 89 |
| CAMKK1 | 4 | -0.0931 | 103 | 96.2 |
| ABCB4 | 1 | -0.348 | 71.9 | 56.4 |
| ABCB4 | 2 | -0.412 | 84 | 63.1 |
| ABCB4 | 3 | 0.781 | 10.1 | 17.3 |
| CAPN1 | 1 | -0.0547 | 40 | 38.5 |
| CAPN1 | 2 | -0.147 | 82.2 | 74.2 |
| CAPN1 | 3 | -0.0993 | 72.3 | 67.5 |
| CAPN1 | 4 | -0.158 | 96 | 86 |
| TINAGL1 | 1 | -0.454 | 91.8 | 67 |
| TINAGL1 | 2 | -0.315 | 57.2 | 45.9 |
| TINAGL1 | 3 | -0.449 | 92 | 67.4 |
| TINAGL1 | 4 | -0.224 | 97.8 | 83.7 |

An excerpt from above, reduced to “log2 vehicle/camptothecin viability”.
RASA1 #4	-0.00863
PCBD2 #1	-0.486
PCBD2 #2	-0.0396
PCBD2 #3	-0.307
PCBD2 #4	-0.159
CAMKK1 #1	-0.0173

The results go on:
| gene | reagent no. | log2 vehicle/camptothecin viability | viability with camptothecin (% of control) | viability without drug (% of control) |
| --- | --- | --- | --- | --- |
| ADAM11 | 1 | 0.047 | 83.3 | 86.1 |
| ADAM11 | 2 | 0.604 | 20 | 30.4 |
| ADAM11 | 3 | -0.159 | 58.6 | 52.5 |
| APOC2 | 1 | -0.0755 | 100 | 95.2 |
| APOC2 | 2 | 0.0303 | 71.2 | 72.7 |
| APOC2 | 3 | -0.242 | 81.7 | 69.1 |
| APOC2 | 4 | 0.191 | 77.2 | 88.1 |
| MTMR9 | 1 | -0.228 | 77 | 65.8 |
| MTMR9 | 2 | -0.416 | 110 | 82.5 |
| MTMR9 | 3 | -0.284 | 61.9 | 50.8 |
| MTMR9 | 4 | -0.332 | 56.1 | 44.6 |
| CKLF | 1 | -0.246 | 93 | 78.4 |
| CKLF | 2 | -0.098 | 49.1 | 45.9 |
| CKLF | 3 | -0.262 | 98.5 | 82.2 |
| CKLF | 4 | -0.206 | 93 | 80.6 |
| CLK1 | 1 | -0.0498 | 92.4 | 89.3 |
| CLK1 | 2 | -0.253 | 56.5 | 47.4 |
| CLK1 | 3 | 0.318 | 25 | 31.1 |
| CLK1 | 4 | -0.18 | 108 | 95.7 |
| ABCG1 | 1 | -0.872 | 15.7 | 8.58 |
| ABCG1 | 2 | -0.142 | 88.4 | 80.1 |
| ABCG1 | 3 | -0.211 | 129 | 112 |
| ABCG1 | 4 | -0.406 | 107 | 80.9 |
